The text below walks through data of article PMC4041447.

By UniProt entry, the sequences of proteins in these tests, tags left out.
UniProt Q01167: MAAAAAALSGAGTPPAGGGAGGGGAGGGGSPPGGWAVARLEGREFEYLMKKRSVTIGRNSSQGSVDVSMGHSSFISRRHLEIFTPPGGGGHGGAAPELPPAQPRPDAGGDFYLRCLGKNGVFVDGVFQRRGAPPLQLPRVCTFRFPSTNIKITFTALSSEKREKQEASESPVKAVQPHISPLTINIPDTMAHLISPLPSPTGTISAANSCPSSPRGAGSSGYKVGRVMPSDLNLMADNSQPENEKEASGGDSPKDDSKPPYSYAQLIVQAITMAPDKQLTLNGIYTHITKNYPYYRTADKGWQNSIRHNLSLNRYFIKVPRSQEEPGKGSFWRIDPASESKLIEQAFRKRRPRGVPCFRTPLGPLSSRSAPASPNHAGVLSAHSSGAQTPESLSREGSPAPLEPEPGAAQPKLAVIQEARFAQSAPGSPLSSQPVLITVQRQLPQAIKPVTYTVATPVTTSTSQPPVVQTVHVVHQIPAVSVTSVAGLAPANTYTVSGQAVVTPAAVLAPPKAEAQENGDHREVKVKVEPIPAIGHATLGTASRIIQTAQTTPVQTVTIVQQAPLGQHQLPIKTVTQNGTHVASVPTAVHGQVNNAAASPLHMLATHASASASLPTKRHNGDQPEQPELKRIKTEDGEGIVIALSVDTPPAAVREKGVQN
UniProt Q76L83: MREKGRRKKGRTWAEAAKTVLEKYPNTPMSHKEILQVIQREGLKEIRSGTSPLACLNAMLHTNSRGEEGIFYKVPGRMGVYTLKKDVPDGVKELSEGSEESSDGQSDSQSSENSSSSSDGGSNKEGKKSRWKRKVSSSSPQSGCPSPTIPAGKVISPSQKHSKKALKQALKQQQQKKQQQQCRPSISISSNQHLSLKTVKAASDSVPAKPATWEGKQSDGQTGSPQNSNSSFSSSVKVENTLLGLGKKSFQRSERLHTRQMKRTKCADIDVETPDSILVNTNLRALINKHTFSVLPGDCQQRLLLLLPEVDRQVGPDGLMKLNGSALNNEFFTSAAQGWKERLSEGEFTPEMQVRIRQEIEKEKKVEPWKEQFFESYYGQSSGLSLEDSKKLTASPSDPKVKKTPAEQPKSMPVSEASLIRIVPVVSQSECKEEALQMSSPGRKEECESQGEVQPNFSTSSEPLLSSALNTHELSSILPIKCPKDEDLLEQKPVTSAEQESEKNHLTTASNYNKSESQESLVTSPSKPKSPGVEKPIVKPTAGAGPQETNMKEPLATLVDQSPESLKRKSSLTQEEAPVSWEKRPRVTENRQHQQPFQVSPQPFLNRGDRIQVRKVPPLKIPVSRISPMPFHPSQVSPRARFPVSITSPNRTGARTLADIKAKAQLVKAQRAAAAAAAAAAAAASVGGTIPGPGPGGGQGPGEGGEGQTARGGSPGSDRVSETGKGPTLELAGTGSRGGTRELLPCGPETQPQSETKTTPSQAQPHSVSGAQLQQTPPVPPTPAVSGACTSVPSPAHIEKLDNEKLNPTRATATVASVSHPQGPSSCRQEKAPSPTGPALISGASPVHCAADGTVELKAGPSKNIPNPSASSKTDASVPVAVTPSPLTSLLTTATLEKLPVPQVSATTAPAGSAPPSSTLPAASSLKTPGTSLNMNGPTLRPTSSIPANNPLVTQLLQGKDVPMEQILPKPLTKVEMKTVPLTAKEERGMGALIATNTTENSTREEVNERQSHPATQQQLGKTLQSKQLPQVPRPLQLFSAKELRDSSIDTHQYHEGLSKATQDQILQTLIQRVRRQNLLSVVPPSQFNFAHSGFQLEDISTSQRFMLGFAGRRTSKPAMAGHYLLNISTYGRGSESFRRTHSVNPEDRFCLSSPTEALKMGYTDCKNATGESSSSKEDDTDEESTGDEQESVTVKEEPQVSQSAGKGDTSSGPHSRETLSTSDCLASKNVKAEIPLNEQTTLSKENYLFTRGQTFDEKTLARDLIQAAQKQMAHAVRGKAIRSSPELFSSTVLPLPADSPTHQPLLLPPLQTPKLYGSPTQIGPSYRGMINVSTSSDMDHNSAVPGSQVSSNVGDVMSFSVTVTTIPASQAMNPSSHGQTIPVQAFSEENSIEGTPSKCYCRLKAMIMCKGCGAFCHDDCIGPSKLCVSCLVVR
UniProt Q13547: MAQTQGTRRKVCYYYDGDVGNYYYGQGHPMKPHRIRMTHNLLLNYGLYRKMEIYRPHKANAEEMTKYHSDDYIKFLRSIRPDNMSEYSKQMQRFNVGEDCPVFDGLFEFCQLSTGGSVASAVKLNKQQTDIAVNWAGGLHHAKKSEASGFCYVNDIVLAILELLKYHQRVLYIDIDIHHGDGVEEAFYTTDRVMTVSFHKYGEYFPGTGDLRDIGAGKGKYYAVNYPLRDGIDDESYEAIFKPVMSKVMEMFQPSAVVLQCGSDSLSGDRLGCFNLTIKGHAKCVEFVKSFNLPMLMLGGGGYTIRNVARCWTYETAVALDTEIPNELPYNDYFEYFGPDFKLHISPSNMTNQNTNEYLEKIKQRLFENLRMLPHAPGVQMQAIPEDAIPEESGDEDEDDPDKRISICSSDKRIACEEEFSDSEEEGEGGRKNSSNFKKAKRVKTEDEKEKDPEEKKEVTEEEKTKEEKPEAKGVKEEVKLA

This experiment concerns the target Flag-tagged FOXK2 (FOXK2–HF) (UniProt Q01167). Description: co-IP; anti-Flag (FOXK2) IP from U2OS–FOXK2–HF cells; endogenous partners detected by immunoblotting.

Results are given in words; binding and its absence hold for the method and conditions named. Binding seen in cells or lysates may run through a third protein. Some results given as binding are weak or reduced against the parent protein; the word gives no strength.

For the substance “endogenous ASXL2 (from UniProt Q76L83 1-1435)”, the binding result is listed as “binds”.

“endogenous HDAC1 (from UniProt Q13547 1-482) (enzyme)”: the binding result is on record as “binds”.
